# Taken from: PubChem BioAssay AID720505 (Drosophila RNAi Screening Center, 2013)
# Aim: 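Genes needed for store-operated calcium entry in fly cells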 (primary screen)
# System: Drosophila S2R+ cells
# Reagent: long dsRNA against Drosophila genes
# Conditions: thapsigargin (2 µM) in calcium-free buffer to empty internal stores, then 2 mM calcium added back
# Measurement: 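Stores emptied by 2 µM thapsigargin without calcium, then 2 mM calcium re-added; fluo-4 fluorescence followed by FLIPR in 384-well plates, per-well averaged endpoint, raw; two screen passes, some wells retested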
# Scale: calcium signal and retest calcium signal: higher = more calcium entry after store depletion
# Hit rule: 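Knock-downs counted as hits when calcium entry dropped relative to STIM1 positive and Rho1 negative controls present on each plate; roughly 1500 genes called, with reductions of differing size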
# Calls: active = called as lowering calcium entry; inactive = not called
# In all, the deposit lists about 20,000 reagents; this is an unselected part of those with a known target gene and a result. Of all reagents, about 2,100 (10%) are marked active. 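Raw plate signals without normalisation; calls rest on control-based scores that were not deposited; replicate 2 separates called from uncalled poorly.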 Names joined by + are all predicted targets of the reagent. The record does not give: the amount of reagent, the time to read-out.
"calcium signal, replicate 1","calcium signal, replicate 2","retest calcium signal, replicate 1","retest calcium signal, replicate 2",activity call,Gene,dsRNA
182,216,,,inactive,Nup44A,DRSC07248
181,155,,,inactive,gcm2,DRSC03538
110,174,,,inactive,Arl1,DRSC09667
109,130,,,inactive,msb1l,DRSC03572
212,138,,,inactive,CG6295,DRSC16012
105,153,,,inactive,CG14085,DRSC10089
144,144,,,inactive,CG17931 + CG42446,DRSC15293
107,95,,,inactive,CG43069,DRSC05752
192,125,97.4,104,inactive,Ing3,DRSC20002
181,182,,,inactive,CG1314,DRSC20495
62.1,85.7,,,inactive,CG18171,DRSC08524
57,82.7,,,active,CG33459,DRSC05615
136,146,,,inactive,CG11249,DRSC11645
81.8,131,,,inactive,Smvt,DRSC15426
92.6,93,,,inactive,CG14658,DRSC12244
243,95,,,inactive,CG12116,DRSC17812
90.3,110,,,inactive,CG7231,DRSC03034
170,438,,,inactive,CG31223,DRSC15115
88.8,137,,,inactive,CG34325,DRSC19802
100,155,,,inactive,CG34325,DRSC20200
127,135,,,inactive,CG17919,DRSC12571
181,176,,,inactive,Syn2,DRSC06902
98.9,89.3,,,inactive,Eip74EF,DRSC10613
88.6,196,,,inactive,Eip74EF,DRSC11160
73.8,82.2,6111,124,inactive,MTF-1,DRSC11217
122,123,,,inactive,MTF-1,DRSC21341
94.6,121,,,inactive,Sox21a,DRSC10819
105,134,,,inactive,CG33458,DRSC22891
76.8,87.6,,,active,Vha36-1,DRSC07098
63.5,95.2,,,inactive,CG42789,DRSC13793
134,130,,,inactive,CG11400,DRSC06070
203,74.9,,,inactive,Gr28a,DRSC02290
141,112,,,inactive,CG14395,DRSC14852
63.4,94.4,,,inactive,CG14840,DRSC14964
57,93.3,,,active,TwdlB,DRSC16050
101,139,,,inactive,CG7460,DRSC10850
105,116,,,inactive,CG33169,DRSC11853
92.6,117,,,inactive,mst,DRSC20582
141,111,,,inactive,Cwc25,DRSC00545
216,113,,,inactive,CG31688 + CG31687,DRSC02116
80.2,108,,,inactive,PolD3,DRSC01961
120,202,,,inactive,CG14374,DRSC14834
117,100,,,inactive,CG3817,DRSC15515
105,95,,,inactive,NimA,DRSC01353
84.9,231,,,inactive,NimA,DRSC22170
81.2,102,,,inactive,CG11596,DRSC18540
,,,,active,CG33229,DRSC07863
90.6,292,,,inactive,CG7289,DRSC00697
62.3,133,,,active,neb,DRSC03577
77.3,103,,,inactive,CCKLR-17D3,DRSC20015
71.4,112,,,active,CCKLR-17D3,DRSC20017
109,147,,,inactive,Mgat2,DRSC16347
121,185,,,inactive,CG14370,DRSC14832
259,177,,,inactive,Rox8,DRSC16829
86.5,108,,,inactive,CG32706 + CG6999,DRSC18412
122,91.9,,,inactive,CG6675,DRSC03735

Hits (from the list above):
"calcium signal, replicate 1","calcium signal, replicate 2","retest calcium signal, replicate 1","retest calcium signal, replicate 2",activity call,Gene,dsRNA
57,82.7,,,active,CG33459,DRSC05615
76.8,87.6,,,active,Vha36-1,DRSC07098
57,93.3,,,active,TwdlB,DRSC16050
,,,,active,CG33229,DRSC07863
62.3,133,,,active,neb,DRSC03577
71.4,112,,,active,CCKLR-17D3,DRSC20017
